No constants are given. Whether binding was seen depends on the method and setting. In cells and extracts the contact can be indirect. Binding can be weak; no strength is given. Values belong to the binder of their own block, whether it stands above or below them.
Biological target: GST tagged L-DL (long isoform of hnRNP D-like) (mouse)
Experiment: pull-down; co-affinity precipitation: GST-L-DL, GST-SC35 or GST control expressed in 293T cells; 500 μg lysate in GST-binding buffer (PBS, 0.1 mM EDTA, 0.1% Triton X-100, pH 7.4) on GST agarose beads overnight at 4 °C; washes with 0.1% SDS, 0.3% deoxycholate, 0.3% NP-40; immunoblot of endogenous partners

binding: binds
B1: SC35 (splicing component 35 kDa) (protein, UniProt Q01130 1-221)
chain: MSYGRPPPDVEGMTSLKVDNLTYRTSPDTLRRVFEKYGRVGDVYIPRDRYTKESRGFAFVRFHDKRDAEDAMDAMDGAVLDGRELRVQMARYGRPPDSHHSRRGPPPRRYGGGGYGRRSRSPRRRRRSRSRSRSRSRSRSRSRYSRSKSRSRTRSRSRSTSKSRSARRSKSKSSSVSRSRSRSRSRSRSRSPPPVSKRESKSRSRSKSPPKSPEEEGAVSS

binding: binds
B2: U2AF35 (U2 auxiliary factor 35 kDa subunit) (protein, UniProt Q01081 1-240)
chain: MAEYLASIFGTEKDKVNCSFYFKIGACRHGDRCSRLHNKPTFSQTIALLNIYRNPQNSSQSADGLRCAVSDVEMQEHYDEFFEEVFTEMEEKYGEVEEMNVCDNLGDHLVGNVYVKFRREEDAEKAVIDLNNRWFNGQPIHAELSPVTDFREACCRQYEMGECTRGGFCNFMHLKPISRELRRELYGRRRKKHRSRSRSRERRSRSRDRGRGGGGGGGGGGGGRERDRRRSRDRERSGRF
